Literature values as cited in publication PMC12406664, “New derivatives of 6-nitrocoumarin-3-thiosemicarbazone exhibit improved antiparasitic activity in the placenta against Trypanosoma cruzi and Toxoplasma gondii” (Antimicrobial Agents and Chemotherapy, 2025).

System: T. cruzi
Set-up: method as in ref 28 (b), 32, 33 (c, d)
Details: Fig. 2 literature compounds, ref 28 (b), 32, 33 (c, d); cited from earlier work

## NC(=S)N/N=C/c1ccc([N+](=O)[O-])o1 [b]
  SI = EC50 (mammalian cell model) / IC50 (parasite): 3.2
